Measurements taken from PubChem BioAssay AID248 (DTP/NCI, 2004).
The list does not hold the whole screen: it gathers tests that were run many times, whatever their T/C, doses with no T/C, and many T/C values between a quarter and a half above the control. Other doses and runs of a compound stand elsewhere. T/C gives the treated animals as a percentage of the vehicle group. Some entries give survivors of the animals treated and no T/C: the source files T/C as zero there, which appears to mark a toxic dose or a test without result, not a measured value. Some doses without a T/C left all or most animals alive at the check, yet need not have been tolerated: the source hardly ever lists a survival T/C far under the control, and the zero likely stands for such cases as well. Survivors were counted at the toxicity check, usually on the fifth day, unless a day is given; later deaths do not show. Schedule codes are those of the source, read here as Q, the interval in days (D) or hours (H), X, the number of doses. Some schedules carry Z or #; the key to these is not given. Some entries were tested several times; their values stand side by side, smallest first. For survival time, the PubChem record calls one and a half times the control and up active, and a quarter to a half above the control has no call in these data; cut-offs in other NCI protocols can differ. Some T/C values carry the count of animals alive at the toxicity check (mostly the fifth day); where none is given, no animal had died by that day.

Test system: L1210 leukemia ip in BDF1 mice, survival T/C
Test: NCI In Vivo Anticancer Drug Screen. Data for tumor model L1210 Leukemia (intraperitoneal) in B6D2F1 (BDF1) mice
Details: T/C endpoint: mean survival time, higher T/C = longer survival
[1] = dose: 400.0 mg/kg/injection, schedule: Q04DX003 (ip), vehicle: saline
[2] = dose: 100.0 mg/kg/injection, schedule: Q01DX001 (ip), vehicle: saline
[3] = dose: 200.0 mg/kg/injection, schedule: Q01DX001 (ip), vehicle: saline
[4] = dose: 400.0 mg/kg/injection, schedule: Q01DX001 (ip), vehicle: saline
[5] = dose: 80.0 mg/kg/injection, schedule: Q01DX001 (ip), vehicle: saline
[6] = dose: 400.0 mg/kg/injection, schedule: Q04DX003 (ip), vehicle: saline with Tween-80

For `COc1ccc2c3c(c4cc(OC)c(OC)cc4c2c1)CN1CCC[C@H]1[C@@H]3O`, the survivor count (dose: 2.0 mg/kg/injection, schedule: Q01DX Z (ip), vehicle: water) was 0 of 6, the survivor count (dose: 3.0 mg/kg/injection, schedule: Q01DX Z (ip), vehicle: water) was 0 of 6 and the T/C (dose: 4.0 mg/kg/injection, schedule: Q01DX015 (ip), vehicle: acid diluted with saline) was 126 % of control. The survivor count (dose: 4.0 mg/kg/injection, schedule: Q01DX015 (ip), vehicle: water) was 0 of 6, the survivor count (dose: 4.6 mg/kg/injection, schedule: Q01DX Z (ip), vehicle: water) was 0 of 6 and the T/C (dose: 6.0 mg/kg/injection, schedule: Q01DX015 (ip), vehicle: acid diluted with saline) was 126 % of control. The T/C (dose: 6.0 mg/kg/injection, schedule: Q01DX015 (ip), vehicle: water) was 130 % of control, the survivor count (dose: 7.0 mg/kg/injection, schedule: Q01DX Z (ip), vehicle: water) was 0 of 6 and the survivor count (dose: 9.0 mg/kg/injection, schedule: Q01DX015 (ip), vehicle: water) was 6 of 6. For the same compound, the survivor count (dose: 10.0 mg/kg/injection, schedule: Q01DX Z (ip), vehicle: water) was 0 of 6, the survivor count (dose: 12.0 mg/kg/injection, schedule: Q01DX015 (ip), vehicle: water) was 2 of 6 and the survivor count (dose: 15.0 mg/kg/injection, schedule: Q01DX Z (ip), vehicle: water) was 0 of 6. For the same compound, the survivor count (dose: 20.0 mg/kg/injection, schedule: Q01DX Z (ip), vehicle: water) was 0 of 6.
With `Cc1cc[n+](Cc2ccccc2)cc1` the survivor count (dose: 50.0 mg/kg/injection, schedule: Q04DX003 (ip), vehicle: saline) was 6 of 6, the survivor count (dose: 100.0 mg/kg/injection, schedule: Q04DX003 (ip), vehicle: saline) was 0 of 6 and the survivor count (dose: 200.0 mg/kg/injection, schedule: Q04DX003 (ip), vehicle: saline) was 0 of 6. For the same compound, the survivor count [1] was 0 of 6.
`CCCCCCCCCCCCSC1=CC(=O)C=CC1=O` was tested, and the survivor count [2] was 3 of 6, the survivor count [3] was 2 of 4 and the survivor count [4] was 0 of 6.
`NC(=O)CSSCC(N)=O` was tested, and the survivor count [1] was 0 of 6.
In the case of `COc1cc(O)c2ncccc2c1O`, the survivor count (dose: 50.0 mg/kg/injection, schedule: Q01DX001 (ip), vehicle: saline) is reported as 2 of 4, the T/C [5] is reported as 133 % of control [3 of 4 alive] and the survivor count [5] is reported as 0 of 6 and 1 of 6. For the same compound, the survivor count [2] was 0 of 4, the survivor count (dose: 120.0 mg/kg/injection, schedule: Q01DX001 (ip), vehicle: saline) was 0 of 6 and 1 of 6 and the survivor count [3] was 0 of 4. For the same compound, the survivor count [4] was 0 of 4.
`CN(C)N=C(Cc1ccccc1)Cc1ccccc1` was tested, and the survivor count (dose: 200.0 mg/kg/injection, schedule: Q01DX009 (ip), vehicle: saline with Tween-80) was 4 of 6 and the survivor count [6] was 2 of 6.
In the case of `Cc1cccc(C)c1N1C(=O)C2C(C1=O)C1(Cl)C(Cl)=C(Cl)C2(Cl)C1(Cl)Cl` (stereo not drawn), the survivor count (dose: 200.0 mg/kg/injection, schedule: Q01DX009 (ip), vehicle: Klucel (hydroxypropylcellulose) (HPC)) is reported as 0 of 6 and the survivor count (dose: 400.0 mg/kg/injection, schedule: Q04DX003 (ip), vehicle: Klucel (hydroxypropylcellulose) (HPC)) is reported as 0 of 6.
For `Clc1ccc(OCc2sc3ccc(Cl)cc3c2CN2CCCCC2)cc1`, the survivor count (dose: 200.0 mg/kg/injection, schedule: Q04DX003 (ip), vehicle: saline with Tween-80) was 6 of 6 and the survivor count [6] was 6 of 6.
With `CCCCN(CCC#N)C(N)=O` the survivor count (dose: 200.0 mg/kg/injection, schedule: Q01DX Z (ip), vehicle: methylcellulose (MC)) was 5 of 6.
In the case of `O=[N+]([O-])c1ccc(-c2ccc([N+](=O)[O-])c(-c3ccccc3)c2)cc1`, the survivor count [6] is reported as 6 of 6.
With `COC(=O)C1(N(C)C)c2ccccc2-c2ccccc21` the survivor count (dose: 200.0 mg/kg/injection, schedule: Q01DX001 (ip), vehicle: carboxymethylcellulose (CMC)) was 2 of 4 and the survivor count (dose: 400.0 mg/kg/injection, schedule: Q01DX001 (ip), vehicle: carboxymethylcellulose (CMC)) was 1 of 4.
